Among the data in paper PMC6891087 are binding values, retold here.

No constants are given. Whether binding was seen depends on the method and setting. In cells and extracts the contact can be indirect. Some results given as binding are weak or reduced against the parent protein; the word gives no strength. Tags and fused reporters may be left off the sequences shown.

This test addresses T1, Myc-Borealin, Q53HL2.
T1 chain: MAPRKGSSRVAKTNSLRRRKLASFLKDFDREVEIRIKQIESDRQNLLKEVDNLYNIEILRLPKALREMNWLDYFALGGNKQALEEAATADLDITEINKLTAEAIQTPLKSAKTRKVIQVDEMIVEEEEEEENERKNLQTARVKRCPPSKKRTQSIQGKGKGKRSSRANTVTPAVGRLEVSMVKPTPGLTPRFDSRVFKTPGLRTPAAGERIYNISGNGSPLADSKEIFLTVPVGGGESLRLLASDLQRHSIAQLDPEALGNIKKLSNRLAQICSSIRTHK
Kind of test: co-IP; anti-myc antibody on protein G beads; lysate of mitotic HeLa Kyoto cells (RO3306 washout, shake-off) transfected with Myc-Borealin constructs; 50 mM Tris pH 7.4, 400 mM NaCl, 0.5% IGEPAL, 0.1% deoxycholate; blots for Survivin, INCENP, Aurora B. The note with it: remark: other sources report otherwise.

B1: Aurora B kinase (endogenous, HeLa), Q96GD4 1-344 (enzyme)
chain: MAQKENSYPWPYGRQTAPSGLSTLPQRVLRKEPVTPSALVLMSRSNVQPTAAPGQKVMENSSGTPDILTRHFTIDDFEIGRPLGKGKFGNVYLAREKKSHFIVALKVLFKSQIEKEGVEHQLRREIEIQAHLHHPNILRLYNYFYDRRRIYLILEYAPRGELYKELQKSCTFDEQRTATIMEELADALMYCHGKKVIHRDIKPENLLLGLKGELKIADFGWSVHAPSLRRKTMCGTLDYLPPEMIEGRMHNEKVDLWCIGVLCYELLVGNPPFESASHNETYRRIVKVDLKFPASVPMGAQDLISKLLRHNPSERLPLAQVSAHPWVRANSRRVLPPSALQSVA
For B1, the binding entry was “binds”.
